Data from article PMC12331601.
Read-outs that look alike come from different tables or passages of the source. No constants are given. Whether binding was seen depends on the method and setting. In cells and extracts the contact can be indirect. A yes stands for co-enrichment or nearness to the bait. Other partners may have been found. For part of these data: No binding means not detected with the bait.

Protein sequences, listed by entry. Tags and fused reporters are not part of them.
UniProt O00425: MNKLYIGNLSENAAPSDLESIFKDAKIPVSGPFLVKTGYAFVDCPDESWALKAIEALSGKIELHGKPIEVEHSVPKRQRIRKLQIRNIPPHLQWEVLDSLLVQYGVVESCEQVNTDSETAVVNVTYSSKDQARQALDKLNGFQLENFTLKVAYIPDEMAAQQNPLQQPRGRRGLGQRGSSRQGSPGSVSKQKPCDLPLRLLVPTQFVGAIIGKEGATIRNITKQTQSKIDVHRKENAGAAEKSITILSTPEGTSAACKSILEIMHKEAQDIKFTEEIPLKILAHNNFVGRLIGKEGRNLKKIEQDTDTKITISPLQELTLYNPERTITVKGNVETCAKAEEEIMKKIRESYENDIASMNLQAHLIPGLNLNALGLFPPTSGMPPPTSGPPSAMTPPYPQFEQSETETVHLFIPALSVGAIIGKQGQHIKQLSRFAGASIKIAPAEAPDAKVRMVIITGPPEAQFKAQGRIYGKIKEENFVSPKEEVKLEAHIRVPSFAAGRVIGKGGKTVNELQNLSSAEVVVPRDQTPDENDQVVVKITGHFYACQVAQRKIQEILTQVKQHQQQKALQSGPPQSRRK
UniProt Q9Y6M1: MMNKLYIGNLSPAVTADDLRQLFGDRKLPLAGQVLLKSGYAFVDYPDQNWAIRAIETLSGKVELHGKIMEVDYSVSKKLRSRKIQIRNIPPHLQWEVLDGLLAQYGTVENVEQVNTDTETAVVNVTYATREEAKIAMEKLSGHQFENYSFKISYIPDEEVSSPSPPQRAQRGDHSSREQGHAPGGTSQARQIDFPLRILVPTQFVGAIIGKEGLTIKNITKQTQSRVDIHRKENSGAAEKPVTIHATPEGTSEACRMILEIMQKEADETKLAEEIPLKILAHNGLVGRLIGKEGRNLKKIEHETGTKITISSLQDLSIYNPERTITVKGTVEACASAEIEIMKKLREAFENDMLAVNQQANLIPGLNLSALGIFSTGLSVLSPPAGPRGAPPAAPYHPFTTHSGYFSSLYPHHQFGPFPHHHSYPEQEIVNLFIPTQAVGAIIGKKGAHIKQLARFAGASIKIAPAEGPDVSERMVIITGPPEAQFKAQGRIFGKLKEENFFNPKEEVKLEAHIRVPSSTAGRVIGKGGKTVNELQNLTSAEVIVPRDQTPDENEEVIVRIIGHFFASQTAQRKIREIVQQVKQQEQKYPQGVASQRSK

T1: BAG5 (UniProt Q9UL15)
T1 sequence: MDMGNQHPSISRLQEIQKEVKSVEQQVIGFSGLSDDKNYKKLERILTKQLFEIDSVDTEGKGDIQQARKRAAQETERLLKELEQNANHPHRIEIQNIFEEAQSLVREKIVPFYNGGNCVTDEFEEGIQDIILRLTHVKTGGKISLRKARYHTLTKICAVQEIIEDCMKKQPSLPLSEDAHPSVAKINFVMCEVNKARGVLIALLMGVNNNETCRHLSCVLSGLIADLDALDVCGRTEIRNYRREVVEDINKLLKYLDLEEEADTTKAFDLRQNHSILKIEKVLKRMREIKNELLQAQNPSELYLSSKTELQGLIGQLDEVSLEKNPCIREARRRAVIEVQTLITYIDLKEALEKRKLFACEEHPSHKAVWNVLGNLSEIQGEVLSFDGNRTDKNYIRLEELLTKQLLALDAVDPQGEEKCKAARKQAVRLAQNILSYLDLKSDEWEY


What was measured:
BAG5 [1] = target: T1, BAG5; assay: affinity purification with mass spectrometry; BAG5 immunocomplex on anti-Flag magnetic beads from NP-40 lysates (50 mM Tris-HCl pH 7.4, 150 mM NaCl) of A549 (and BEAS-2B) cells, overnight at 4 °C, four washes; SDS-PAGE and LC-MS/MS
BAG5 [2] = target: T1, BAG5; assay: as above; remark: listed apart in the source

| binding (BAG5 [1]) | binding (BAG5 [2]) | Molecule |
| --- | --- | --- |
| binds | – | IGF2BP3 (from UniProt O00425 1-579) |
| binds | – | IGF2BP2 (from UniProt Q9Y6M1 1-599) |
| – | no binding | GLUT3 (protein, UniProt P11169 1-496) MGTQKVTPALIFAITVATIGSFQFGYNTGVINAPEKIIKEFINKTLTDKGNAPPSEVLLTSLWSLSVAIFSVGGMIGSFSVGLFVNRFGRRNSMLIVNLLAVTGGCFMGLCKVAKSVEMLILGRLVIGLFCGLCTGFVPMYIGEISPTALRGAFGTLNQLGIVVGILVAQIFGLEFILGSEELWPLLLGFTILPAILQSAALPFCPESPRFLLINRKEEENAKQILQRLWGTQDVSQDIQEMKDESARMSQEKQVTVLELFRVSSYRQPIIISIVLQLSQQLSGINAVFYYSTGIFKDAGVQEPIYATIGAGVVNTIFTVVSLFLVERAGRRTLHMIGLGGMAFCSTLMTVSLLLKDNYNGMSFVCIGAILVFVAFFEIGPGPIPWFIVAELFSQGPRPAAMAVAGCSNWTSNFLVGLLFPSAAHYLGAYVFIIFTGFLITFLAFTFFKVPETRGRTFEDITRAFEGQAHGADRSGKDGVMEMNSIEPAKETTTNV |
